This note sets out measurements from PubChem BioAssay AID330 (DTP/NCI, 2004).

The test concerns P388 leukemia ip, CD2F1 mice, survival T/C. The test is described as follows: NCI In Vivo Anticancer Drug Screen. Data for tumor model P388 Leukemia (intraperitoneal) in CD2F1 (CDF1) mice. The note with it: T/C endpoint: median survival time, higher T/C = longer survival.
Where [1] appears, read: dose: 50.0 mg/kg/injection, schedule: Q01DX009 (ip), vehicle: saline with Tween-80.
The mark [2] stands for this setting: dose: 100.0 mg/kg/injection, schedule: Q01DX009 (ip), vehicle: saline with Tween-80.
[3] abbreviates: dose: 200.0 mg/kg/injection, schedule: Q01DX009 (ip), vehicle: saline with Tween-80.
[4] abbreviates: dose: 400.0 mg/kg/injection, schedule: Q01DX009 (ip), vehicle: saline with Tween-80.
Setting [5] is: dose: 200.0 mg/kg/injection, schedule: Q01DX009 (ip), vehicle: Klucel (hydroxypropylcellulose) (HPC).

The list is a part of this screen's results and no random one: it is rich in T/C values a quarter to a half above the control, in often repeated tests (any T/C) and in doses without a T/C. Further doses and runs are listed elsewhere. T/C is the treated group as % of the vehicle group. Some entries give survivors of the animals treated and no T/C: the source files T/C as zero there, which appears to mark a toxic dose or a test without result, not a measured value. Some survivor counts are full or nearly so, which does not show that the dose was tolerated: the source hardly ever lists a survival T/C far under the control, and the zero likely stands for such cases as well. Survivors were counted at the toxicity check, usually on the fifth day, unless a day is given; later deaths do not show. Schedule codes are those of the source, taken here to give the interval after Q, in days (D) or hours (H), and the number of doses after X. Where survival is the endpoint, this PubChem deposit counts one and a half times the control or more as active, and values a quarter to a half above the control carry no call in these data; other NCI protocols may use other cut-offs. Some entries were tested several times; the values are given in rising order. Some T/C values carry the count of animals alive at the toxicity check (mostly the fifth day); without a count, all were alive then.

Turning to `N#CCCOCN(COCCC#N)c1nc(N(COCCC#N)COCCC#N)nc(N(COCCC#N)COCCC#N)n1`, the survivor count reads like this: (dose: 30.0 mg/kg/injection, schedule: Q01DX005 (ip), vehicle: DMSO) 6 of 6; (dose: 60.0 mg/kg/injection, schedule: Q01DX005 (ip), vehicle: DMSO) 5 of 6; (dose: 120.0 mg/kg/injection, schedule: Q01DX005 (ip), vehicle: DMSO) 5 of 5.

Turning to `COC(=O)c1c(C(=O)OC)c2ccc3ccccc3n2c1-c1ccccc1`, the survivor count (dose: 100.0 mg/kg/injection, schedule: Q01DX001 (ip), vehicle: saline with Tween-80) is on record as 6 of 6.

Consider `NC(=S)N/N=C/c1cc(-c2cccc(N)c2)ccn1`, for which the T/C runs as follows: (dose: 3.13 mg/kg/injection, schedule: Q01DX009 (ip), vehicle: saline) 125 % of control; (dose: 6.25 mg/kg/injection, schedule: Q01DX009 (ip), vehicle: saline with Tween-80) 130 % of control; (dose: 6.25 mg/kg/injection, schedule: Q01DX009 (ip), vehicle: saline) 136 % of control [9 of 10 alive]; (dose: 12.5 mg/kg/injection, schedule: Q01DX009 (ip), vehicle: saline with Tween-80) 135 % of control; (dose: 12.5 mg/kg/injection, schedule: Q01DX009 (ip), vehicle: saline) 125 and 145 % of control; (dose: 25.0 mg/kg/injection, schedule: Q01DX009 (ip), vehicle: saline with Tween-80) 145 % of control. The T/C (dose: 25.0 mg/kg/injection, schedule: Q01DX009 (ip), vehicle: saline) is 147 % of control; the T/C (dose: 37.5 mg/kg/injection, schedule: Q04DX003 (ip), vehicle: saline) is 127 % of control; the T/C under setting [1] was 147 % of control; the T/C (dose: 50.0 mg/kg/injection, schedule: Q01DX009 (ip), vehicle: saline) is 149 % of control; the T/C (dose: 75.0 mg/kg/injection, schedule: Q04DX003 (ip), vehicle: saline) is 125 % of control. Further, the survivor count runs as follows: under setting [2], 10 of 10; (dose: 150.0 mg/kg/injection, schedule: Q01DX009 (ip), vehicle: saline with Tween-80) 0 of 10; under setting [3], 0 of 10.

As to `OC1CC2CCC(C1)N2` (stereo unspecified), the survivor count (dose: 240.0 mg/kg/injection, schedule: Q01DX005 (ip), vehicle: saline) is listed as 4 of 6.

For `Cc1ccc(COc2ccc(Cl)cc2Cn2ccnc2)cc1`, the survivor count is listed as 2 of 6 (dose: 200.0 mg/kg/injection, schedule: Q04DX002 (ip), vehicle: saline) and 0 of 6 (dose: 400.0 mg/kg/injection, schedule: Q04DX002 (ip), vehicle: saline).

In the case of `CN(C)c1ccc(N=Nc2ccccc2)cc1`, where the note is “dose: 125.0 mg/kg/injection, schedule: Q01DX009 (ip), vehicle: saline with Tween-80”, the survivor count is listed as 6 of 6.

Take `Cc1cc(OC(=O)Nc2ccc(C)c([N+](=O)[O-])c2)c(Br)cc1Cl`: the survivor count (dose: 200.0 mg/kg/injection, schedule: Q01DX009 (ip), vehicle: saline + alcohol) was 1 of 6.

For `C/C(O)=C(/N=Nc1ccc(-c2nc3ccc(C)c(S(=O)(=O)O)c3s2)cc1)C(=O)Nc1ccccc1`, the survivor count is listed as 6 of 6 under setting [1], 6 of 6 under setting [2] and 6 of 6 under setting [3].

In the case of `CN(N=O)C(=O)NCCCCCNC(=O)N(C)N=O`, the T/C was 145 % of control [5 of 6 alive] under setting [2]; 136 % of control [5 of 6 alive] under setting [3]; 131 % of control [5 of 6 alive] (dose: 264.0 mg/kg/injection, schedule: Q01DX009 (ip), vehicle: saline with Tween-80).

Regarding `Nc1nc(N)c2cc(Sc3ccc4ccccc4c3)ccc2n1`, the T/C under setting [2] was 140 % of control. Moreover, the survivor count under setting [4] is listed as 5 of 6.

Turning to `CN(C)CCCNc1c2ccccc2nc2cc([N+](=O)[O-])ccc12`, the T/C (dose: 0.39 mg/kg/injection, schedule: Q01DX009 (ip), vehicle: water) was 133 % of control and the T/C (dose: 3.13 mg/kg/injection, schedule: Q01DX009 (ip), vehicle: water) was 127 % of control. Also, the survivor count was 2 of 6 (dose: 6.25 mg/kg/injection, schedule: Q01DX009 (ip), vehicle: water); 3 of 6 (dose: 12.5 mg/kg/injection, schedule: Q01DX009 (ip), vehicle: water); 0 of 6 (dose: 25.0 mg/kg/injection, schedule: Q01DX009 (ip), vehicle: water); 0 of 6 (dose: 50.0 mg/kg/injection, schedule: Q01DX009 (ip), vehicle: water); 0 of 6 (dose: 100.0 mg/kg/injection, schedule: Q01DX009 (ip), vehicle: water); 0 of 6 (dose: 200.0 mg/kg/injection, schedule: Q01DX009 (ip), vehicle: water).

In the case of `NC(=O)c1cc([N+](=O)[O-])cnc1Sc1ncn[nH]1`, the survivor count under setting [5] is 3 of 6.

For `O=C(O)c1cc2c([N+](=O)[O-])cccc2[se]1`, the survivor count runs as follows: (dose: 100.0 mg/kg/injection, schedule: Q01DX009 (ip), vehicle: saline) 6 of 6; (dose: 200.0 mg/kg/injection, schedule: Q01DX009 (ip), vehicle: saline) 6 of 6.

Take `O=C(Nc1n[nH]c(NC(=O)c2ccccc2)n1)c1ccccc1`: the survivor count (dose: 200.0 mg/kg/injection, schedule: Q01DX005 (ip), vehicle: Klucel (hydroxypropylcellulose) (HPC)) is given as 6 of 6.

With `O=Cc1cccc[n+]1Cc1ccc2c(c1)OCO2`, the survivor count is on record as 0 of 6 (dose: 100.0 mg/kg/injection, schedule: Q01DX009 (ip), vehicle: distilled water + Tween-80); 0 of 6 (dose: 200.0 mg/kg/injection, schedule: Q01DX009 (ip), vehicle: distilled water + Tween-80); 0 of 6 (dose: 400.0 mg/kg/injection, schedule: Q01DX009 (ip), vehicle: distilled water + Tween-80).

With `O=C(c1ccco1)C(O)NC(=S)c1ccc(Cl)cc1` (stereo unspecified), the T/C is, setting by setting: under setting [2], 126 % of control; under setting [3], 126 and 130 % of control; under setting [4], 135 % of control.

For `COC(=O)c1cc(NC(=O)NNC(=O)c2ccncc2)cc(C(=O)OC)c1`, under setting [5], the survivor count is given as 1 of 6.

On to `C1CN1Sc1nc(SN2CC2)nc(SN2CC2)n1`, for which the survivor count (dose: 240.0 mg/kg/injection, schedule: Q01DX005 (ip), vehicle: Klucel (hydroxypropylcellulose) (HPC)) was 0 of 6.
